{"source": "patent US6716392B1", "about": "“Preservation of liquid biological samples” (The United States of America as represented by the United …, priority 1995, dated 2004)", "test": "APAP and AP in saliva stored in preservative coated tubes during Mir-space flight mission", "type": "physicochemical", "conditions": "preservative coated Salivettes stored in the locker of the Shuttle", "note": "Some entries share one result that the patent states for a list of compounds."}
{"smiles": "CC(=O)Nc1ccc(O)cc1", "note": "[APAP, acetaminophen]", "values": [{"measurement": "time concentrations were stable in saliva", "value": "≥ 90", "unit": "days"}]}
